Experimental data: PubChem BioAssay AID1259254 (NCATS, 2017)
Shown is one part, drawn at random, of about 59,000 reagents. Over the whole deposit, about 1,550 (2.6%) were called active. 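G2 share is only a proxy for re-replication; each gene was hit by three separate siRNAs, and active genes were retested.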 The raw values are shown without normalisation. Entries without a mark were called inactive. The numbers tell different reagents against one gene apart. Not given: the amount of reagent.

- Purpose: 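Finding genes that stop cells copying their DNA twice in one cycle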 (primary screen)
- Cell system: human HCT116 colorectal cancer cells
- Knock-down reagent: single siRNA against human genes
- Timing: 3 days
- Read-out: 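Imaged Hoechst DNA stain sorts each cell into a cycle phase by DNA amount; per plate, G2 fraction set to 0% for non-targeting and 100% for GMNN siRNA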
- Reading the numbers: G2 robust z-score and G2 cells, % of GMNN control: higher = more G2 cells, more excess DNA replication; raw share of cells in G2: higher = larger share of cells with G2 DNA content
- Hit rule: 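Active siRNAs have a G2 robust z of 5 or more median absolute deviations over the median, which in these data means about 38% or higher of GMNN control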

G2 robust z-score | G2 cells, % of GMNN control | raw share of cells in G2 (%) | target | siRNA no.
-0.784 | -2.55 | 4.12 | HOXB6 (GeneID 3216) | 1
0.111 | 3.75 | 5.58 | HOXB6 (GeneID 3216) | 2
-0.659 | -1.67 | 5.05 | HOXB6 (GeneID 3216) | 3
-0.381 | 0.287 | 4.63 | WRAP53 (GeneID 55135) | 1
-0.217 | 1.44 | 4.73 | WRAP53 (GeneID 55135) | 2
2.38 | 19.7 | 9.42 | WRAP53 (GeneID 55135) | 3
-0.475 | -0.374 | 3.47 | NIBAN3 (GeneID 199786) | 1
1.98 | 16.9 | 8.62 | NIBAN3 (GeneID 199786) | 2
2.47 | 20.3 | 9.19 | NIBAN3 (GeneID 199786) | 3
-0.189 | 1.64 | 3.77 | IL17C (GeneID 27189) | 1
-0.124 | 2.09 | 4.65 | IL17C (GeneID 27189) | 2
-0.193 | 1.61 | 5.16 | IL17C (GeneID 27189) | 3
-1.08 | -4.66 | 2.77 | ATG16L1 (GeneID 55054) | 1
-0.941 | -3.65 | 2.81 | ATG16L1 (GeneID 55054) | 2
1.44 | 13.1 | 12.2 | ATG16L1 (GeneID 55054) | 3
-0.948 | -3.7 | 4.81 | RTN4 (GeneID 57142) | 1
0.93 | 9.51 | 7.85 | RTN4 (GeneID 57142) | 2
-0.488 | -0.467 | 4.14 | RTN4 (GeneID 57142) | 3
7.43 (active) | 55.2 | 25.6 | GPR160 (GeneID 26996) | 1
-0.958 | -3.77 | 3.2 | GPR160 (GeneID 26996) | 2
0.0237 | 3.13 | 4.23 | GPR160 (GeneID 26996) | 3
-0.802 | -2.67 | 3.82 | SLC22A9 (GeneID 114571) | 1
0.249 | 4.72 | 7.86 | SLC22A9 (GeneID 114571) | 2
1.95 | 16.7 | 10.8 | SLC22A9 (GeneID 114571) | 3
0.271 | 4.88 | 7.66 | TMPRSS9 (GeneID 360200) | 1
0.626 | 7.37 | 6.9 | TMPRSS9 (GeneID 360200) | 2
-0.812 | -2.75 | 3.24 | TMPRSS9 (GeneID 360200) | 3
1.22 | 11.5 | 7.69 | C11orf40 (GeneID 143501) | 1
0.594 | 7.15 | 5.12 | C11orf40 (GeneID 143501) | 2
0.359 | 5.49 | 4.98 | C11orf40 (GeneID 143501) | 3

4 of these entries in another layout:
G2 robust z-score	G2 cells, % of GMNN control	raw share of cells in G2 (%)	target	siRNA no.
2.47	20.3	9.19	NIBAN3 (GeneID 199786)	3
-0.189	1.64	3.77	IL17C (GeneID 27189)	1
-0.124	2.09	4.65	IL17C (GeneID 27189)	2
-0.193	1.61	5.16	IL17C (GeneID 27189)	3
